Measurements as given in paper PMC4956616.
Numbering of substitutions follows the chain as printed. These are yes or no findings as the source states them, for the method shown. For some assays here: Where a sequence is shown, tags or fusion partners need not be part of it.

Amino acid sequences for entries named in this document (tags omitted). A change or cut given only in a name is not applied to a line headed by its entry. Residues count along the entry.
UniProt P40616, residues 15-181: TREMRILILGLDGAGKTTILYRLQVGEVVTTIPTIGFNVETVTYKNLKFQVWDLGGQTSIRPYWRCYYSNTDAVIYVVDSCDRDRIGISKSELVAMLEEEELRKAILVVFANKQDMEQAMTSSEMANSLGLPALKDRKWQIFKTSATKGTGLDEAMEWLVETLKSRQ
UniProt Q92538, residues 1-566: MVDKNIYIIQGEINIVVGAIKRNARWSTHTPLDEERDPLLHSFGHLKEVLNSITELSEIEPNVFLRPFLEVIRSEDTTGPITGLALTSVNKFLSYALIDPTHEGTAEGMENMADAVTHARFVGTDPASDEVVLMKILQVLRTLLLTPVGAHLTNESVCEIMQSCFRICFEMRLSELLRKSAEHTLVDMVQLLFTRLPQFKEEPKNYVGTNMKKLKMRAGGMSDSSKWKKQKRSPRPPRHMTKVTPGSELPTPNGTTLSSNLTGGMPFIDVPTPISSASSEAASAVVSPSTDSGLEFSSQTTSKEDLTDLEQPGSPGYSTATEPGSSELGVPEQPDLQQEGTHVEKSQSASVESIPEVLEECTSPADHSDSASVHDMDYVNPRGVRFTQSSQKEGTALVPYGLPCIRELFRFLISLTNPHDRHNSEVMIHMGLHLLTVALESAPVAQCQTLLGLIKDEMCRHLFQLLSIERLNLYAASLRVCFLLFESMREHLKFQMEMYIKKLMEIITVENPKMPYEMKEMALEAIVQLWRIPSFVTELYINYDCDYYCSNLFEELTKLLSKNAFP

Assays:
[1] = molecular target: T1, His6-DCB^BIG1 Leu156Asp (human) (UniProt Q9Y6D6); assay: pull-down; Ni-NTA beads preloaded with His6-tagged DCB^BIG1 variants mixed with 1 nM GST-Arl1^GMP-PNP in 500 μl buffer C plus 5 mM MgCl2 and 40 mM imidazole; SDS-PAGE, Coomassie; both purified
T1 sequence: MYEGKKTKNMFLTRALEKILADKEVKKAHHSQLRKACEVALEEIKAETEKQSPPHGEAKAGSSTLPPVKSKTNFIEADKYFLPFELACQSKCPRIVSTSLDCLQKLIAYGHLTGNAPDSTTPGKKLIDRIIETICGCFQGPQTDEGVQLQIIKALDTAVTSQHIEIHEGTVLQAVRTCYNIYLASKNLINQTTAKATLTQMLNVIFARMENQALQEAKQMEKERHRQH

[2] = molecular target: T2, His6-DCB^BIG1 Tyr109Lys (human) (UniProt Q9Y6D6); assay: as above
T2 sequence: T1 sequence with Y109K, D156L

[3] = molecular target: T3, His6-DCB^BIG1 Lys105Asp (human) (UniProt Q9Y6D6); assay: as above
T3 sequence: T1 sequence with K105D, D156L

[4] = molecular target: T4, His6-DCB^BIG1 Gln200Glu (human) (UniProt Q9Y6D6); assay: as above
T4 sequence: T1 sequence with D156L, Q200E

[5] = molecular target: GST-Arl1^ΔN14 (human Arl1 residues 15–181), loaded with GMP-PNP or GDP (human) (UniProt P40616); assay: pull-down; 2 nM GST-Arl1 loaded with GMP-PNP or GDP mixed with 2 nM His6-tagged protein in 500 μl buffer C (20 mM Tris-HCl, 110 mM KCl, 1 mM DTT, 0.1% Triton X-100) plus 5 mM MgCl2, 4°C 30 min, captured on glutathione-Sepharose; SDS-PAGE, Coomassie; both purified

GST-Arl1^ΔN14 (human Arl1 residues 15–181), loaded with GMP-PNP or GDP (from UniProt P40616 15-181) (domain or fragment)
binding [1]: no binding (tested: 1 nM GST-Arl1^GMP-PNP)
binding [2]: no binding (tested: 1 nM GST-Arl1^GMP-PNP)
binding [3]: no binding (tested: 1 nM GST-Arl1^GMP-PNP)
binding [4]: no binding (tested: 1 nM GST-Arl1^GMP-PNP)

His6-tagged GBF1 N-terminal fragment (1–566) (from UniProt Q92538 1-566) (domain or fragment)
binding [5]: no binding (tested: 2 nM of the His6-tagged protein)
